Test results from patent US20240352128A1.
No constants are given. Whether binding was seen depends on the method and setting. Some binding calls cover weakened binding; strength is not graded here. Tags and fused reporters may be left off the sequences shown.

Chains of the proteins cited; added tags and fusions are not shown. Residues count along the entry.
UniProt P08637, residues 17-208: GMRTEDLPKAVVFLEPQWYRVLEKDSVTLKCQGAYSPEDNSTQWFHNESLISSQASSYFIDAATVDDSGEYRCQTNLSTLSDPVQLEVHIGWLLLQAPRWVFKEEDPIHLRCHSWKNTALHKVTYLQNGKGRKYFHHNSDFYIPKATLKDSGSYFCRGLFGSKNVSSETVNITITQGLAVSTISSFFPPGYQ

B1: AR8776 sdAb fusion protein with mIgG1 Fc (Fc fusion)
chain: AVQLVESGGGLVQPGGSLRLSCAASGFTFSNYAMSWVRQAPGKGLEWVSSINRGGSITNYADSVKGRFAISRDNAKNTIYLQMNNLRPEDTAQYSCARGDSTYSRLSAAYRGQGTQVTVSSVPRDCGCKPCICTVPEVSSVFIFPPKPKDVLTITLTPKVTCVVVDISKDDPEVQFSWFVDDVEVHTAQTQPREEQFNSTFRSVSELPIMHQDWLNGKEFKCRVNSAAFPAPIEKTISKTKGRPKAPQVYTIPPPKEQMAKDKVSLTCMITDFFPEDITVEWQWNGQPAENYKNTQPIMDTDGSYFVYSKLNVQKSNWEAGNTFTCSVLHEGLHNHHTEKSLSHSPGK
B2: AR8875 sdAb fusion protein with mIgG1 Fc (Fc fusion)
chain: QVQLVESGGGLVQPGGSLRLSCAASGFTFSNYAMTWVRQAPGKGLEWVSSIDRGGSITSYADSVKGRFAISRDNAKNTMYLQMNNLRPEDTARYVCARGDSTYSRLTAAYRGQGTQVTVSSVPRDCGCKPCICTVPEVSSVFIFPPKPKDVLTITLTPKVTCVVVDISKDDPEVQFSWFVDDVEVHTAQTQPREEQFNSTFRSVSELPIMHQDWLNGKEFKCRVNSAAFPAPIEKTISKTKGRPKAPQVYTIPPPKEQMAKDKVSLTCMITDFFPEDITVEWQWNGQPAENYKNTQPIMDTDGSYFVYSKLNVQKSNWEAGNTFTCSVLHEGLHNHHTEKSLSHSPGK
B3: AR8866 sdAb fusion protein with mIgG1 Fc (Fc fusion)
chain: QVKLEESGGGLVQPGGSLRLSCVASGFTFSVWTMSWVRQAPGKGLEWVSDISHSGIYTTYADSVKGRFTISRDNAKNTLWLQLNALKPEDTAVYYCAQGNRRNSMLSGTLRGQGTQVTVSSVPRDCGCKPCICTVPEVSSVFIFPPKPKDVLTITLTPKVTCVVVDISKDDPEVQFSWFVDDVEVHTAQTQPREEQFNSTFRSVSELPIMHQDWLNGKEFKCRVNSAAFPAPIEKTISKTKGRPKAPQVYTIPPPKEQMAKDKVSLTCMITDFFPEDITVEWQWNGQPAENYKNTQPIMDTDGSYFVYSKLNVQKSNWEAGNTFTCSVLHEGLHNHHTEKSLSHSPGK
B4: AR8887 sdAb fusion protein with mIgG1 Fc (Fc fusion)
chain: QVQLVESGGGLVQAGGSLRLSCAVSGFLYYSIGWFRQAPGKEREWVSCISRSGAGTSYANSVKGRSTISRDNDKNTVYLQMNSLKSEDTAVYYCARRATSSCTATMTRGQYDYWGQGTQVTVSSVPRDCGCKPCICTVPEVSSVFIFPPKPKDVLTITLTPKVTCVVVDISKDDPEVQFSWFVDDVEVHTAQTQPREEQFNSTFRSVSELPIMHQDWLNGKEFKCRVNSAAFPAPIEKTISKTKGRPKAPQVYTIPPPKEQMAKDKVSLTCMITDFFPEDITVEWQWNGQPAENYKNTQPIMDTDGSYFVYSKLNVQKSNWEAGNTFTCSVLHEGLHNHHTEKSLSHSPGK
B5: AR8861 sdAb fusion protein with mIgG1 Fc (Fc fusion)
chain: AVQLVDSGGGLVQPGGSLRLSCVASGFTFSIWTMSWVRQAPGKGLEWVSDISHSGLYTTYADSVKGRFTISRDNAKNTLWLQLNALKPEDTAVYYCAQGNRRTSMLSGTLRGQGTQVTVSSVPRDCGCKPCICTVPEVSSVFIFPPKPKDVLTITLTPKVTCVVVDISKDDPEVQFSWFVDDVEVHTAQTQPREEQFNSTFRSVSELPIMHQDWLNGKEFKCRVNSAAFPAPIEKTISKTKGRPKAPQVYTIPPPKEQMAKDKVSLTCMITDFFPEDITVEWQWNGQPAENYKNTQPIMDTDGSYFVYSKLNVQKSNWEAGNTFTCSVLHEGLHNHHTEKSLSHSPGK
B6: AR8804 sdAb fusion protein with mIgG1 Fc (Fc fusion)
chain: AVQLVDSGGGLVQAGGSLRLSCAASGSSVSRYAMAWYRQAPGKERELVAVVRITGIPIYADFVKGRFTISRDNAKNTVLLQMNSLEPEDTAIYYCNTGNFNTYTRRYSPSETWGQGTQVTVSSVPRDCGCKPCICTVPEVSSVFIFPPKPKDVLTITLTPKVTCVVVDISKDDPEVQFSWFVDDVEVHTAQTQPREEQFNSTFRSVSELPIMHQDWLNGKEFKCRVNSAAFPAPIEKTISKTKGRPKAPQVYTIPPPKEQMAKDKVSLTCMITDFFPEDITVEWQWNGQPAENYKNTQPIMDTDGSYFVYSKLNVQKSNWEAGNTFTCSVLHEGLHNHHTEKSLSHSPGK
B7: AR8820 sdAb fusion protein with mIgG1 Fc (Fc fusion)
chain: QVKLEESGGGLVQAGGSLRLSCAASGSSISRYAMAWYRQGPGKERELVAVVRITGSPIYADFVGGRFTISRDNAKSTVLLQMNSLKPEDTAIYYCNTGNFNTYTRRYSPSETWGQGTQVTVSSVPRDCGCKPCICTVPEVSSVFIFPPKPKDVLTITLTPKVTCVVVDISKDDPEVQFSWFVDDVEVHTAQTQPREEQFNSTFRSVSELPIMHQDWLNGKEFKCRVNSAAFPAPIEKTISKTKGRPKAPQVYTIPPPKEQMAKDKVSLTCMITDFFPEDITVEWQWNGQPAENYKNTQPIMDTDGSYFVYSKLNVQKSNWEAGNTFTCSVLHEGLHNHHTEKSLSHSPGK

target: recombinant human CD16a-His protein (Acro Biosystems; catalog #: CDA-H52S1) (human) (UniProt P08637); test: ELISA, CD16a coated, sdAb-mIgG1 Fc

binding, binds:
B1
B2
B3
B4
B5
B6
B7
